Data from publication PMC3940611.
These are yes or no findings as the source states them, for the method shown. Binding seen in cells or lysates may run through a third protein. Some binding calls cover weakened binding; strength is not graded here. Where a sequence is shown, tags or fusion partners need not be part of it.

Amino acid sequences for entries named in this document (tags omitted).
UniProt P56546: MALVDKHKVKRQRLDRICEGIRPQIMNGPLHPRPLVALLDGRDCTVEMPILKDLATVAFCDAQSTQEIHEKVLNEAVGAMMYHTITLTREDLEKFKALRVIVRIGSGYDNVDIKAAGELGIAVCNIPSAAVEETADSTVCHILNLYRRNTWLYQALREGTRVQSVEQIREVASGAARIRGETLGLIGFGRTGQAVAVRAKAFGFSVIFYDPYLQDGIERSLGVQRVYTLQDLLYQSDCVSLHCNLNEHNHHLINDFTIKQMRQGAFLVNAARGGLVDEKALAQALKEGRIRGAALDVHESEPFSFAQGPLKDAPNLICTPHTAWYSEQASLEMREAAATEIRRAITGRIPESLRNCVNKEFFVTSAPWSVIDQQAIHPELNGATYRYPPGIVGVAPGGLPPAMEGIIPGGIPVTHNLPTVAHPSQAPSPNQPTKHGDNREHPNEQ

T1: eGFP-Zscan4c fusion protein (mouse) (UniProt Q80VJ6)
T1 sequence: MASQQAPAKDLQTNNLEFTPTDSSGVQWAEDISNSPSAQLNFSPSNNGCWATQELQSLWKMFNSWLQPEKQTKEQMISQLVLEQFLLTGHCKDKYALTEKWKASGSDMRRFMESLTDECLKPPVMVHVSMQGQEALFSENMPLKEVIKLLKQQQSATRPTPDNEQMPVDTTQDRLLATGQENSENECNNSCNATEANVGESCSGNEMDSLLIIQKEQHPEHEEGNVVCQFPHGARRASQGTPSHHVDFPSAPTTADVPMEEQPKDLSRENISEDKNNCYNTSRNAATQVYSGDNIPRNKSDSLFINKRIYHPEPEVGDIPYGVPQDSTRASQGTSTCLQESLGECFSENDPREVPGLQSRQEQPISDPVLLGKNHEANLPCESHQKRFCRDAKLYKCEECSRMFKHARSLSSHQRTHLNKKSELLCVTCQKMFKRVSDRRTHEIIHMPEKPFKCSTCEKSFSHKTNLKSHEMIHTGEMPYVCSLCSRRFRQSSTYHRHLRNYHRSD


Experiments:
[1] = biological target: T1, eGFP-Zscan4c fusion protein (mouse); assay: co-IP; nuclear extracts of mouse ESCs (80 or 200 µg protein), pre-cleared, precipitated with GFP-Trap-A beads or anti-LSD-1, anti-CtBP2 or anti-V5 antibodies on protein A or G sepharose; washed with nuclear extraction buffer; immunoblot; Dox or Tet removal for 72 h to induce tagged Zscan4c
[2] = biological target: C-Terminal Binding Protein-2 (CtBP2) (mouse (endogenous in mouse ESCs)) (UniProt P56546); assay: as above

Molecule	binding [1]	binding [2]
C-Terminal Binding Protein-2 (CtBP2) (from UniProt P56546 1-445)	binds	–
Zscan4c-V5-His (protein, UniProt Q80VJ6 1-506) MASQQAPAKDLQTNNLEFTPTDSSGVQWAEDISNSPSAQLNFSPSNNGCWATQELQSLWKMFNSWLQPEKQTKEQMISQLVLEQFLLTGHCKDKYALTEKWKASGSDMRRFMESLTDECLKPPVMVHVSMQGQEALFSENMPLKEVIKLLKQQQSATRPTPDNEQMPVDTTQDRLLATGQENSENECNNSCNATEANVGESCSGNEMDSLLIIQKEQHPEHEEGNVVCQFPHGARRASQGTPSHHVDFPSAPTTADVPMEEQPKDLSRENISEDKNNCYNTSRNAATQVYSGDNIPRNKSDSLFINKRIYHPEPEVGDIPYGVPQDSTRASQGTSTCLQESLGECFSENDPREVPGLQSRQEQPISDPVLLGKNHEANLPCESHQKRFCRDAKLYKCEECSRMFKHARSLSSHQRTHLNKKSELLCVTCQKMFKRVSDRRTHEIIHMPEKPFKCSTCEKSFSHKTNLKSHEMIHTGEMPYVCSLCSRRFRQSSTYHRHLRNYHRSD	–	binds
